Laboratory results reported in PubChem BioAssay AID504467 (National Center for Advancing Translational Sciences (NCATS), 2011).
About 7,700 (2.3%) of roughly 330,000 compounds were called active. This list was built around the results that the source calls inconclusive (neither active nor inactive); the mix of calls is not that of the screen. Calls come from the whole dose curve; as a rule, active = well fitted inhibition curve with a large enough effect; inconclusive = small, poorly fitted or top-dose-only effect, or effect the other way; inactive = flat fitted curve, though single readings scatter. Where the call is inconclusive, the potency comes from a doubtful curve fit.

Assay: qHTS screen for small molecules that inhibit ELG1-dependent DNA repair in human embryonic kidney (HEK293T) cells expressing luciferase-tagged ELG1; note: nearly all actives have a fitted effect of over 55% in size
Conditions: HEK293T ELG1-luciferase reporter, luminescence, 16 h, DNA damage induced by 5-fluorouridine; series mostly up to 46.1 µM
In short: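 DMSO vehicle served as the neutral condition. Each well held 2,000 cells given 5-fluorouridine plus compound; after 16 hr at 37 °C/5% CO2, ONE-Glo was added and luciferase measured 30 min later.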
Potency is the fitted concentration of half-maximal effect.

Row | SMILES | Potency
1 | COc1ccc(-c2nnc3sc(-c4ccccn4)nn23)cc1 | inactive
2 | COc1cc(C(=O)N=c2sc3ccccc3n2C)cc(OC)c1OC | inconclusive: 29.1 µM [inhibitor, partial curve, poor fit]
3 | Cc1csc(Nc2ccccc2)[n+]1C | inactive
4 | CCc1c(C(=O)NNC(=S)NC2CCCCC2)csc1C | inactive
5 | O=C(N/N=C1\CCc2ccccc21)c1ccccc1O | inconclusive: 2.31 µM [activator, partial curve]
6 | NC(=O)NC(=O)CSc1nc(C2CCCCC2)n(-c2ccccc2)n1 | inactive
7 | CCCCCCC(=O)Nc1nc(C)c(-c2csc(Nc3cccc(OC)c3)n2)s1 | inconclusive: 11.6 µM [inhibitor, partial curve]
8 | COc1cc([N+](=O)[O-])c2ncsc2c1 | inactive
9 | COc1ccc(OCC(=O)Nc2nnc(C)s2)cc1 | inconclusive: 16.4 µM [activator, single point]
10 | CSCC[C@H](NC(=O)COc1ccc(Cl)cc1)c1nc2ccccc2[nH]1 | inconclusive: 29.1 µM [inhibitor, single point]
11 | COCCNC(=O)/C(C#N)=C/c1ccc(SC)cc1 | inconclusive: 18.3 µM [activator, single point]
12 | C/C(=N\NC(=O)c1ccc2ccccc2c1)c1cccnc1 | inconclusive: 14.6 µM [activator, partial curve]
13 | COc1cc(CNc2ncnc3c2[nH]c2ccc(C)cc23)cc(OC)c1 | active: 20.6 µM
14 | O=C(Oc1ccc([N+](=O)[O-])cc1)c1cc(-c2ccccc2)nc2ccccc12 | inactive
15 | O=C1c2ccccc2C(=O)N1S(=O)(=O)c1ccccc1 | inactive
16 | O=C1C=C(N2CCOCC2)C2(CCCCC2)O1 | inconclusive: 5.8 µM [activator, partial curve]
17 | c1ccc2c(c1)CCN(c1nc(CN3CCOCC3)nc3sc4c(c13)CCCC4)C2 | active: 10.3 µM
18 | O=C(c1cc(-c2ccco2)nc2ccccc12)N1CCN(c2ccc(F)cc2)CC1 | inconclusive: 23.1 µM [inhibitor, single point]
19 | O=S(=O)(NCCc1ccccc1)c1cccc2nsnc12 | inactive
20 | Cc1cc(Cl)n2c(nc3cc(F)c(F)cc32)c1C#N | inconclusive: 29.1 µM [inhibitor, single point]
21 | Cc1ccc(Cl)c(NC(=O)COC(=O)c2ccccc2C(=O)c2ccc(Cl)c([N+](=O)[O-])c2)c1Cl | active: 18.4 µM
22 | CC12CN3CC(C)(CN(C1)C3c1ccc3c(c1)OCO3)C2O (stereo not drawn) | inactive
23 | N/C(=N\OC(=O)c1cccc(F)c1)c1ccccc1 | inconclusive: 16.4 µM [activator, partial curve]

Ordered by heavy-atom count (smallest number first): three of the compounds above.
Row | SMILES | Potency
11 | COCCNC(=O)/C(C#N)=C/c1ccc(SC)cc1 | inconclusive: 18.3 µM [activator, single point]
12 | C/C(=N\NC(=O)c1ccc2ccccc2c1)c1cccnc1 | inconclusive: 14.6 µM [activator, partial curve]
21 | Cc1ccc(Cl)c(NC(=O)COC(=O)c2ccccc2C(=O)c2ccc(Cl)c([N+](=O)[O-])c2)c1Cl | active: 18.4 µM
